{"source": "PubChem BioAssay AID1508597 – Cure First – 2020", "test": "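Knock-downs altering ovarian cancer cell survival with or without PARP inhibitor rucaparib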 (primary screen)", "cell system": "human ovarian carcinoma lines grown from tumours: OCI-P5x (papillary serous) and OCI-C5x (clear cell)", "reagents": "siRNA pool against human genes, 1.25 pmol siRNA per well", "duration": "72 h or 96 h, depending on the cell culture", "treatment": "rucaparib 20 µM (about IC30) or vehicle, present until read-out", "rucaparib or vehicle": "Rucaparib", "cell line": "OCI-C5x (clear cell)", "measured": "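ATP luminescence measured at 72 or 96 h according to the culture, then normalised and expressed as percent viability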", "scale": "viability, normalised: higher = more viable cells remaining", "hit rule": "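a well counts as a hit if its normalised viability is under 80 percent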", "meaning of the calls": "active = viability under 80%; inactive = viability 80% or more", "note": "Shown is an unselected part of the about 2,100 reagents, under one of the conditions tested. 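Calls flag viability under 80% in either arm, not effects specific to rucaparib; the reference for percent is not stated.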 Reagent sequences are not shown. The record does not give: the 100% reference."}
{"gene": "CLK3", "technical replicate": "1", "viability, normalised (%)": 74.7, "Outcome": "active"}
{"gene": "CLK3", "technical replicate": "2", "viability, normalised (%)": 57.7, "Outcome": "active"}
{"gene": "CLK3", "technical replicate": "3", "viability, normalised (%)": 83.5, "Outcome": "inactive"}
{"gene": "AKAP13", "technical replicate": "1", "viability, normalised (%)": 66.4, "Outcome": "active"}
{"gene": "AKAP13", "technical replicate": "2", "viability, normalised (%)": 48.6, "Outcome": "active"}
{"gene": "AKAP13", "technical replicate": "3", "viability, normalised (%)": 62.2, "Outcome": "active"}
{"gene": "SMARCB1", "technical replicate": "1", "viability, normalised (%)": 47.4, "Outcome": "active"}
{"gene": "SMARCB1", "technical replicate": "2", "viability, normalised (%)": 48.4, "Outcome": "active"}
{"gene": "SMARCB1", "technical replicate": "3", "viability, normalised (%)": 56.8, "Outcome": "active"}
{"gene": "JADE1", "technical replicate": "1", "viability, normalised (%)": 60.9, "Outcome": "active"}
{"gene": "JADE1", "technical replicate": "2", "viability, normalised (%)": 57.4, "Outcome": "active"}
{"gene": "JADE1", "technical replicate": "3", "viability, normalised (%)": 45.7, "Outcome": "active"}

A portion of the results above:
{"gene": "JADE1", "technical replicate": "1", "viability, normalised (%)": 60.9, "Outcome": "active"}
{"gene": "JADE1", "technical replicate": "2", "viability, normalised (%)": 57.4, "Outcome": "active"}
